Measurements taken from the supplement of paper PMC11348887.
Structures can show the parent of a compound that is named as a salt. This is one part of the list. Small differences around the control level are noise.

How the values were obtained:
Details in all cases: 5 µM; treatment: days 7-14 after plating, readout day 21
[1] = tested on: hPSC-derived cortical neurons (WA09); experiment: nucleus area z-score vs screen plate; higher = larger nuclei (more mature)
[2] = tested on: hPSC-derived cortical neurons (WA09); experiment: total neurite length per nucleus (MAP2) z-score; higher = more neurite growth
[3] = tested on: hPSC-derived cortical neurons (WA09); experiment: nucleus roundness z-score vs screen plate; higher = rounder nuclei (more mature)
[4] = tested on: hPSC-derived cortical neurons (WA09); experiment: KCl-induced FOS+/EGR-1+ double-positive nuclei fraction z-score (KCl minus unstimulated); higher = stronger activity-induced IEG response

Compound	nucleus area z-score [1]	total neurite length per nucleus (z-score) [2]	nucleus roundness z-score [3]	KCl-induced FOS+/EGR-1+ double-positive nuclei fraction z-score [4]
Clc1ccc(CSC(Cn2ccnc2)c2ccc(Cl)cc2Cl)cc1 (stereo not drawn) [Sulconazole Nitrate]	-1.47	-1.48	-1.52	-0.0835
CCOc1nc2cccc(C(=O)O)c2n1Cc1ccc(-c2ccccc2-c2nnn[nH]2)cc1 [Candesartan]	0.222	0.171	-0.00357	0.689
O=c1[nH]cnc2[nH]ncc12 [Allopurinol Sodium]	1.97	-1.28	-1.05	1.8
CCCCCCCCCC(=O)N[C@@H](Cc1c[nH]c2ccccc12)C(=O)N[C@H](CC(N)=O)C(=O)N[C@@H](CC(=O)O)C(=O)N[C@@H]1C(=O)NCC(=O)N[C@@H](CCCN)C(=O)N[C@@H](CC(=O)O)C(=O)N[C@H](C)C(=O)N[C@@H](CC(=O)O)C(=O)NCC(=O)N[C@H](CO)C(=O)N[C@@H]([C@H](C)CC(=O)O)C(=O)N[C@@H](CC(=O)c2ccccc2N)C(=O)O[C@@H]1C [Daptomycin]	0.202	0.595	0.411	-0.371
CC1(C)[C@@H](OC(=O)CCC(=O)O)CC[C@]2(C)[C@H]3C(=O)C=C4[C@@H]5C[C@@](C)(C(=O)O)CC[C@]5(C)CC[C@@]4(C)[C@]3(C)CC[C@@H]12 [Carbenoxolone Sodium]	0.706	-0.0451	1.05	0.57
CCCCN1CCCCC1C(=O)Nc1c(C)cccc1C (stereo not drawn) [Bupivacaine HCl]	1.1	0.589	0.277	2.16
C[C@H]1c2cccc(O)c2C(=O)C2=C(O)[C@]3(O)C(=O)C(C(N)=O)=C(O)[C@@H](N(C)C)[C@@H]3[C@@H](O)[C@@H]21 [Doxycycline HCl]	0.209	-0.346	-0.631	0.138
COC(=O)CCc1ccc(OCC(O)CNC(C)C)cc1 (stereo not drawn) [Esmolol HCl]	-11.1	-4.66	-2.68	-10.3
Cc1cc(N2C[C@@H](C)N[C@@H](C)C2)ncc1-c1ccc(-c2nc3c(ccn3C)c(=O)[nH]2)cc1	-3.59	-2.94	-2.16	-1.13
C=CCn1c(=O)c2cnc(Nc3ccc(N4CCN(C)CC4)cc3)nc2n1-c1cccc(C(C)(C)O)n1	-0.103	0.104	0.0173	-0.305
CC(NC(=O)c1ccccc1/N=C/c1c(O)ccc2ccccc12)c1ccccc1 (stereo not drawn) [Sirtinol]	0.227	-0.907	-1.36	0.537
CC1CCc2c(N3CCC(O)CC3)c(F)cc3c(=O)c(C(=O)O)cn1c23 (stereo not drawn) [Nadifloxacin]	0.931	-1.3	-0.371	-0.489
C[C@@H](O)[C@H]1C(=O)N2C(C(=O)OCOC(=O)C(C)(C)C)=C(SC3CN(C4=NCCS4)C3)[C@H](C)[C@H]12 [Tebipenem Pivoxil]	-0.0929	0.6	0.338	0.33
O=C(OCc1ccccc1)c1ccccc1 [Benzyl benzoate]	0.722	0.572	0.704	1.31
NS(=O)(=O)c1ccc(NC(=O)Nc2ccc(F)cc2)cc1	0.626	0.362	1.16	0.115
CC(C)CCN1c2nc(Nc3cc(F)c(O)c(F)c3)ncc2N(C)C(=O)C1C (stereo not drawn)	1.07	0.724	0.664	0.882
C[C@@H](O)[C@@H]1NC(=O)[C@H](CCCCN)NC(=O)[C@@H](Cc2c[nH]c3ccccc23)NC(=O)[C@H](Cc2ccccc2)NC(=O)[C@@H](NC(=O)[C@H](N)Cc2ccccc2)CSSC[C@@H](C(=O)N[C@H](CO)[C@@H](C)O)NC1=O [Octreotide Acetate]	-2.74	0.00871	-0.643	-0.00993

Three compounds out of the list, arranged by length of the SMILES, low to high.
Compound	nucleus area z-score [1]	total neurite length per nucleus (z-score) [2]	nucleus roundness z-score [3]	KCl-induced FOS+/EGR-1+ double-positive nuclei fraction z-score [4]
O=c1[nH]cnc2[nH]ncc12 [Allopurinol Sodium]	1.97	-1.28	-1.05	1.8
Clc1ccc(CSC(Cn2ccnc2)c2ccc(Cl)cc2Cl)cc1 (stereo not drawn) [Sulconazole Nitrate]	-1.47	-1.48	-1.52	-0.0835
CC1CCc2c(N3CCC(O)CC3)c(F)cc3c(=O)c(C(=O)O)cn1c23 (stereo not drawn) [Nadifloxacin]	0.931	-1.3	-0.371	-0.489
